# Primary screen of a compound library

Protein sequences, listed by entry. Tags and fused reporters are not part of them. Residues count along the entry.
UniProt Q4DA54, 1-478: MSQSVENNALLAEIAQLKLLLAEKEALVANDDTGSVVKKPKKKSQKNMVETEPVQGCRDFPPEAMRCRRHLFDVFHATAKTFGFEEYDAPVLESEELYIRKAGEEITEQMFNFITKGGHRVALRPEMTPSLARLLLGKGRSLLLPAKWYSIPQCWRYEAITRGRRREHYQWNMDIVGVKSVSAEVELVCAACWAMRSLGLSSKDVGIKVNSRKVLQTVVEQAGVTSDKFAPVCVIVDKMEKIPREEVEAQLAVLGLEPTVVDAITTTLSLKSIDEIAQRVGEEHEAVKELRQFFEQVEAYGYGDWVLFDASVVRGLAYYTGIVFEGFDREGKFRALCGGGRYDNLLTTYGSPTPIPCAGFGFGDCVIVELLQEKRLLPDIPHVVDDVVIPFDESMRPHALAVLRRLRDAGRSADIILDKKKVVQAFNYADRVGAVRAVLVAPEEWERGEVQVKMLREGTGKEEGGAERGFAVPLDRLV
UniProt A4I591, 1-473: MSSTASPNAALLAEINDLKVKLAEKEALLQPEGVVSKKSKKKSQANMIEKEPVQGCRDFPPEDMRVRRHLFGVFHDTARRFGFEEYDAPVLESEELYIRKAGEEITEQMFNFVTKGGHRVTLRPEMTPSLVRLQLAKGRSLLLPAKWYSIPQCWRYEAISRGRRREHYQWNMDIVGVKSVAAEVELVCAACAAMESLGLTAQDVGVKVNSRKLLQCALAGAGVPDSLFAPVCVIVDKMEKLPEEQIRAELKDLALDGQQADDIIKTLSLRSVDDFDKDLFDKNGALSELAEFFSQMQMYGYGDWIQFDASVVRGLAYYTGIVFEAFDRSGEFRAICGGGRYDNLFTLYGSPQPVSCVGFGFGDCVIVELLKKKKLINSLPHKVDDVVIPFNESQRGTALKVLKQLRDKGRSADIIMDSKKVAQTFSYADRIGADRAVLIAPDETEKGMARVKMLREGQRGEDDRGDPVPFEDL
UniProt P9WPC5, whole entry: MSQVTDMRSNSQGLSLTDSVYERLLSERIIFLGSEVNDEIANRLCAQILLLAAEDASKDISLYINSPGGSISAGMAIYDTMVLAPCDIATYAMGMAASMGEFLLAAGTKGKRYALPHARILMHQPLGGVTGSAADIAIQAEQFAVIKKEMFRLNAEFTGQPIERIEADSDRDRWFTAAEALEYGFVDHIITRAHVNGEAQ
UniProt P9WPC3, whole entry partner: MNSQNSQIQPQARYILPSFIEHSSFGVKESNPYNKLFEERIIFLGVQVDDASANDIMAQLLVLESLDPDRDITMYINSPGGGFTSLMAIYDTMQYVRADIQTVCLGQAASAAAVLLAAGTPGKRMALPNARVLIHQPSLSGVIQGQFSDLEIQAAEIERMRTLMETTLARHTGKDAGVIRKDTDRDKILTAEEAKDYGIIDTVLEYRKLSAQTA

Data taken from ChEMBL document CHEMBL3988442, “University of Dundee, Small-Polar-MMV Screening Library” (2021).

Values are the deposited “Percent Effect”, in %. The controls that fix the scale are not given in the record; negative values are as filed. Compounds were drawn at random from those tested, without regard to their results. Two or more numbers in one place are separate tests of the same structure; such repeats can differ widely. A dash means the value is not listed here; it may have been measured.

Toxoplasma: 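Assay of Toxoplasma gondii numbers, read through their beta-galactosidase reporter with a colour substrate. Concentration: 10 µM. The record gives no direction; the compounds picked for IC50 retests had high values, so higher reads as fewer parasites. About 67,000 compounds were tested under these conditions; 0.38% (about 260) showed 50% or more at least once.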
Leishmania in macrophages: 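Cell assay of Leishmania donovani living inside macrophages; the read-out is not stated. Concentration: 30 µM. The record gives no direction; compounds that gave an IC50 in retests scored well above the rest, so higher reads as stronger inhibition. About 69,000 compounds were tested under these conditions; 1.5% (about 1,000) showed 50% or more at least once.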
TcHisRS: 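Histidine-tRNA ligase, Trypanosoma cruzi CL Brener (UniProt Q4DA54). Enzyme assay of histidyl-tRNA synthetase; the read-out is not stated. Tested at 30 µM. Higher reads as stronger inhibition (inferred: compounds with an IC50 in retests scored well above the rest). Of about 69,000 compounds tested this way, about 31 (0.045%) reached 50% or more in at least one test.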
LiHisRS: 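Enzyme assay of histidyl-tRNA synthetase; the read-out is not stated. Target: Histidine-tRNA ligase, Leishmania infantum (UniProt A4I591). Tested at 30 µM. The record gives no direction; compounds that gave an IC50 in retests scored well above the rest, so higher reads as stronger inhibition. The assay is labelled LdHisRS but filed under L. infantum. About 69,000 compounds were tested under these conditions; 0.6% (about 410) showed 50% or more at least once.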
ClpP1P2: 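ClpP1P2, Mycobacterium tuberculosis (UniProt P9WPC5 and UniProt P9WPC3). Protease assay of ClpP1P2, read by the AMC dye that it sets free. Tested at 50 µM. Higher reads as stronger inhibition, judged from the few compounds that gave an IC50. Most other retested compounds had strongly negative values. About 69,000 compounds were tested under these conditions; 0.015% (about 10) showed 50% or more at least once.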
T. brucei: 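Whole-parasite assay of Trypanosoma brucei over 72 hours; the read-out is not stated. Compounds at 30 µM. Higher reads as stronger inhibition (inferred: compounds with an IC50 in retests scored well above the rest). Values scatter widely below zero; nearly all retest evidence comes from the higher of the two concentrations used. Size under these conditions: about 64,000 compounds, about 940 of them at 50% or above in at least one test.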

Result for [H][C@@]12CS(=O)(=O)C[C@]1([H])N(C(=O)c1csc(C)n1)CCN2S(C)(=O)=O was Toxoplasma: -4.32%; Leishmania in macrophages: 0.5222%; T. brucei: -10.81%. For CO[C@H]1CN(C(C)C)C[C@@H]1NC(=O)c1cc(-c2ccccc2O)n[nH]1 the result was Toxoplasma: -6.859%; Leishmania in macrophages: 21.46%; TcHisRS: 3.665%; LiHisRS: 9.677%; ClpP1P2: -2.338%; T. brucei: 8.824%. Result for COCC1c2nnn(CC3CC3)c2CCN1Cc1ccncc1 (stereo not shown) was TcHisRS: 14.05%; LiHisRS: 23.64%; ClpP1P2: -10.23%. CC(C)CN1CCN(C(=O)CCn2cccn2)CC1 read Toxoplasma: -12.14%; Leishmania in macrophages: 2.588%; TcHisRS: 5.539%; LiHisRS: 12.84%; ClpP1P2: -1.305%. Result for c1ccc(-c2cnc(CNCC3CCCN3c3cccnn3)o2)cc1 (stereo not shown) was Toxoplasma: 7.856%; Leishmania in macrophages: 23.47%; TcHisRS: 1.132%; LiHisRS: 45.33%; ClpP1P2: 14.59%; T. brucei: -23.04%. With O=C(O)C(F)(F)F.[H][C@@]12CCN(CCOC)C(=O)[C@@]1([H])CN(c1cc(OC)ncn1)C2 the screen gave Toxoplasma: 3.398%; Leishmania in macrophages: -18.98%; T. brucei: -75.84%.

Result for CC1CCCN(c2ccccc2OCC(=O)NC2CC2)C1 (stereo not shown) was Toxoplasma: -7.429%; Leishmania in macrophages: 29.31%; TcHisRS: 1.676%; LiHisRS: 0%; ClpP1P2: -0.6643%; T. brucei: -20.26%. For COc1cccc(CN2CCC3(CC2)CCN(c2ncc(C)cn2)C3)c1.O=C(O)C(F)(F)F the result was Toxoplasma: 9.197%; Leishmania in macrophages: -13.19% and -1.497%; T. brucei: -22.41%. COC(=O)c1ccc(CNC(C)(C)c2ccccc2OC)o1 gave Toxoplasma: -16.62%; Leishmania in macrophages: 8.715%; TcHisRS: 10.31%; LiHisRS: 17.14%; ClpP1P2: 12.79%; T. brucei: -38.2%. Cc1cc(CNC(=O)C2CC(=O)N(CCN(C)C)C2)cc(C)n1 (stereo not shown) gave Toxoplasma: 15.23%; Leishmania in macrophages: -2.867%; TcHisRS: 3.96%; LiHisRS: 25%; ClpP1P2: -11.98%; T. brucei: -11%. NC(=O)C1CCN(C(=O)c2cccn2Cc2cccs2)CC1 gave Toxoplasma: 0.3839%; Leishmania in macrophages: 21.27%; TcHisRS: 2.857%; LiHisRS: 3.846%; ClpP1P2: -12.49%. For Cc1cc(NC(=O)N2CCN(c3cccs3)CC2)ccc1C(N)=O the result was Toxoplasma: -7.29%; Leishmania in macrophages: -4.047%; TcHisRS: 2.381%; LiHisRS: 9.302%; ClpP1P2: 4.616%; T. brucei: -25.95%.

For O=C1CCc2cc(C(=O)NCc3ccc(Cl)s3)ccc2N1 the result was Toxoplasma: 2.754%; Leishmania in macrophages: 6.254%; TcHisRS: -2.762%; LiHisRS: 6.25%; ClpP1P2: 2.558%; T. brucei: -31.55%.

2 of the entries, repeated:

| structure | Toxoplasma | Leishmania in macrophages | TcHisRS | LiHisRS | ClpP1P2 | T. brucei |
|---|---|---|---|---|---|---|
| `O=C1CCc2cc(C(=O)NCc3ccc(Cl)s3)ccc2N1` | 2.754% | 6.254% | -2.762% | 6.25% | 2.558% | -31.55% |
| `NC(=O)C1CCN(C(=O)c2cccn2Cc2cccs2)CC1` | 0.3839% | 21.27% | 2.857% | 3.846% | -12.49% | - |